Taken from: PubChem BioAssay AID686937 (Drosophila RNAi Screening Center, 2013)
The deposit covers about 23,000 reagents; shown is a random part of those that have a named target and a result. 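Reduced-secretion tags in replicate 1 do not always agree with the z-scores; no criterion for assigning the tags was given.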 A plus sign joins genes that one reagent is predicted to hit. Not given: the amount of reagent.

- Test: 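Knock-downs that reduce output of a secreted reporter enzyme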 (primary screen)
- Cell system: Drosophila S2 cells expressing secreted horseradish peroxidase
- Knock-down reagent: long dsRNA against Drosophila genes
- Time to read-out: about 5.5 days (5 days dsRNA, then 12 h reporter induction)
- Conditions: reporter expression induced after 5 days of dsRNA, read 12 h later; inducer not stated
- Read-out: 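Chemiluminescent measurement of peroxidase in the medium 12 h after reporter induction, following 5 days of dsRNA, given as a z-score per plate; higher means more secretion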
- Scale: z-score: higher = more reporter secreted into medium

| predicted target | dsRNA | z-score, replicate 1 | z-score, replicate 2 | z-score, replicate 3 | z-score, replicate 4 | phenotype, replicate 1 |
| --- | --- | --- | --- | --- | --- | --- |
| mav (maverick) | DRSC17149 | 0.32 | 0.38 | – | – | – |
| PolD1 (DNA polymerase delta subunit 1) | DRSC11138 | 0.05 | 0.28 | – | – | – |
| CG6044 | DRSC04522 | 0.56 | 0.35 | – | – | – |
| CngA (Cyclic nucleotide-gated ion channel subunit A) | DRSC06580 | -0.09 | -0.17 | – | – | – |
| CngA (Cyclic nucleotide-gated ion channel subunit A) | DRSC07362 | -0.13 | -0.19 | – | – | – |
| pyr (pyramus) | DRSC06319 | 0.36 | 0.2 | 0.31 | 0.3 | – |
| pyr (pyramus) | DRSC22520 | 0.62 | 0.69 | – | – | – |
| D12 | DRSC03311 | 0.35 | 0.32 | – | – | – |
| CG11286 | DRSC14293 | -0.01 | -0.2 | – | – | – |
| Tsp42Eh (Tetraspanin 42Eh) | DRSC06190 | 0.45 | 0.33 | – | – | – |
| CG3655 | DRSC17676 | 0.55 | 0.71 | – | – | – |
| CG3655 | DRSC18181 | 0.06 | 0.34 | – | – | – |
| CG3655 | DRSC18477 | 0.14 | 0.33 | – | – | – |
| CG3655 | DRSC22688 | 0.45 | 0.2 | – | – | – |
| SMC2 (Structural maintenance of chromosomes 2) | DRSC07544 | 0.23 | 0.06 | – | – | – |
| CG9837 | DRSC16573 | 0.09 | 0.23 | – | – | – |
| Kdm5 (Lysine demethylase 5) | DRSC03133 | 0.15 | -0.26 | – | – | – |
| dod (dodo) | DRSC20577 | -0.12 | -0.06 | – | – | – |
| Echs1 (Enoyl-CoA hydratase, short chain 1) | DRSC06999 | 0.6 | 0.59 | – | – | – |
| hig (hikaru genki) | DRSC07628 | 0.42 | 0.61 | 0.43 | 0.38 | – |
| hig (hikaru genki) | DRSC22827 | -0.56 | -0.53 | – | – | – |
| hig (hikaru genki) | DRSC22899 | 0.13 | 0.01 | – | – | – |
| Ak2 (Adenylate kinase 2) | DRSC04043 | -0.11 | -1.42 | – | – | – |
| CG16815 | DRSC02521 | 0.23 | 0.43 | – | – | – |
| aos (argos) | DRSC11323 | 0.35 | 0.4 | – | – | – |
| Xport-A + Xport-B | DRSC15586 | 0.39 | 0.48 | – | – | – |
| Jon99Fii + Jon99Cii + Jon99Ciii + 1 more | DRSC15298 | 0.24 | 0.45 | – | – | – |
| Pgant5 (Polypeptide N-Acetylgalactosaminyltransferase 5) | DRSC03149 | 0.02 | 0.34 | – | – | – |
| CG9522 | DRSC20197 | 0.31 | 0.48 | – | – | – |
| CG9426 | DRSC03219 | -0.1 | 0.22 | – | – | – |
| CG32628 (retired record) | DRSC19405 | 0.2 | 0.18 | – | – | – |
| CG31205 | DRSC13438 | -2.66 | -0.95 | – | – | reduced secretion |
| CG16888 | DRSC02541 | -0.03 | 0.15 | – | – | – |
| cGlr2 (cGAS-like receptor 2) | DRSC04017 | -2.41 | – | – | – | reduced secretion |
| RpS9 (Ribosomal protein S9) | DRSC11273 | -3.77 | -2.94 | – | – | reduced secretion |
| CG6749 | DRSC10704 | 0.43 | 0.33 | – | – | – |
| epsilonTry (epsilonTrypsin) | DRSC07611 | 0.29 | 0.2 | – | – | – |
| Mdh2 (Malate dehydrogenase 2) | DRSC16361 | 0.31 | 0.38 | – | – | – |
| CG11811 | DRSC09862 | 0.06 | 0.43 | – | – | – |
| Prosbeta2 (Proteasome beta2 subunit) | DRSC11257 | -5.66 | -4.93 | – | – | reduced secretion |
| COX2 (retired record) | DRSC21276 | 0.61 | 0.36 | – | – | – |
| La (La autoantigen-like) | DRSC03358 | 0.19 | 0.38 | – | – | – |
| CG15629 | DRSC00464 | 0.28 | 0.31 | – | – | – |
| CG11127 | DRSC06043 | 0.05 | 0.18 | – | – | – |
| Hakai | DRSC02031 | 0.32 | 0.3 | – | – | – |
| CG4390 | DRSC15572 | 0.41 | 0.43 | – | – | – |
| betaTub56D (beta-Tubulin at 56D) | DRSC07583 | -1.73 | -1.63 | – | – | reduced secretion |
| CheB53a (Chemosensory protein B 53a) | DRSC06625 | 0 | 0.07 | – | – | – |
| Gr93b (Gustatory receptor 93b) | DRSC22063 | -0.19 | 0.15 | – | – | – |
| CG8915 | DRSC20119 | 0.28 | 0.39 | – | – | – |
| CG31142 | DRSC13647 | -0.69 | -0.09 | – | – | – |
| Acp53C14b (Accessory gland protein 53C14b) | DRSC06569 | 0.28 | 0.31 | – | – | – |
| CG5292 | DRSC15763 | 0.34 | -0.02 | – | – | – |
| aph-1 (anterior pharynx defective 1) | DRSC00547 | 0.18 | 0.27 | – | – | – |
| Sgt1 (suppressor-of-G2-allele-of-skp1) | DRSC16519 | -0.05 | 0.43 | – | – | – |
| Chd1 (Chromodomain-helicase-DNA-binding protein 1) | DRSC00745 | 0.48 | 0.56 | – | – | – |
| CG13082 | DRSC02186 | 0.27 | 0.3 | – | – | – |
| CG34355 | DRSC13639 | 0.37 | 0.39 | 0.64 | 0.35 | – |
| CG34355 | DRSC14520 | 0.16 | 0.2 | – | – | – |
| CG34355 | DRSC14668 | 0.21 | 0.37 | – | – | – |
| CG34355 | DRSC21687 | -0.61 | -0.19 | – | – | – |
| CG10555 | DRSC17748 | -0.76 | -1 | – | – | – |
| CG43174 (retired record) | DRSC09518 | 0.27 | 0.11 | – | – | – |
| pan (pangolin) | DRSC17176 | 0.38 | 0.33 | – | – | – |
| pan (pangolin) | DRSC22582 | -0.79 | 0.57 | – | – | – |
| Trax (Translin associated factor X) | DRSC15709 | 0.4 | 0.18 | – | – | – |
| REG (Proteasome regulator gamma) | DRSC20273 | 0.26 | 0.73 | – | – | – |
| CG31229 | DRSC13309 | -2.63 | -1.14 | – | – | reduced secretion |
| CG14777 | DRSC18563 | 0.18 | 0.32 | – | – | – |
| CG32700 | DRSC17857 | 0.19 | 0.12 | – | – | – |
| CG32700 | DRSC17858 | 0.3 | 0.41 | – | – | – |
| asp (abnormal spindle) | DRSC16903 | 0.41 | 0.29 | – | – | – |
| pAbp (poly(A) binding protein) | DRSC07659 | 0.29 | 0.14 | – | – | – |
| idc (identity crisis) | DRSC15680 | 0.39 | 0.26 | – | – | – |
| Dim1 | DRSC00563 | -1.34 | -0.98 | – | – | – |
| mEFTu2 (mitochondrial translation elongation factor Tu 2) | DRSC06163 | 0.07 | -0.2 | – | – | – |
| CG12795 | DRSC00354 | 0.11 | 0.21 | – | – | – |
| firl (firelighter) | DRSC02428 | 0.01 | 0.25 | – | – | – |
| CG34398 | DRSC01052 | 0.57 | 0.66 | 0.62 | 0.82 | – |
| CG34398 | DRSC02510 | 0.32 | 0.01 | – | – | – |
| CG34398 | DRSC02511 | 0.12 | 0.41 | – | – | – |
| CG34398 | DRSC03228 | 0.56 | 0.6 | – | – | – |
| Kr (Kruppel) | DRSC04622 | 0.25 | 0.28 | – | – | – |
| Fkbp39 (FK506-binding protein 39kD) | DRSC16667 | -0.74 | -0.49 | – | – | – |
| bnl (branchless) | DRSC13377 | 0.54 | 0.52 | – | – | – |
| bnl (branchless) | DRSC16913 | -0.79 | -0.24 | – | – | – |
| Dus3 (Dihydrouridine synthase 3) | DRSC02059 | 2 | 0.56 | – | – | – |
| Acn (Acinus) | DRSC02062 | 0.6 | 0.44 | – | – | – |
| ppk11 (pickpocket 11) | DRSC02737 | 0.38 | 0.13 | – | – | – |
| O-fut2 (O-fucosyltransferase 2) | DRSC18608 | 0.41 | 0.12 | – | – | – |
| CG14570 | DRSC11731 | 0.14 | 0.48 | – | – | – |
| CG13369 | DRSC18481 | 0.4 | 0.17 | – | – | – |
| asRNA:CR31845 (antisense RNA:CR31845) | DRSC22257 | 0.97 | 0.7 | – | – | – |
| bdl (borderless) | DRSC00271 | 0.45 | 0.35 | – | – | – |
| CG10973 | DRSC09813 | 0.43 | 0.3 | – | – | – |
| CG16995 | DRSC00480 | 0.17 | 0.26 | – | – | – |
| CG1690 | DRSC06636 | 0.05 | 0.45 | – | – | – |
| ZnT86D (Zinc transporter 86D) | DRSC16091 | -0.19 | 0.37 | – | – | – |
| prd (paired) | DRSC03597 | 0.58 | 0.41 | – | – | – |
| MTA1-like (Metastasis associated 1-like) | DRSC12382 | 0.34 | -0.22 | – | – | – |
| MTA1-like (Metastasis associated 1-like) | DRSC22022 | -0.99 | -0.08 | – | – | – |
| CG31704 | DRSC22118 | 0.01 | 0.03 | – | – | – |
| Syt4 (Synaptotagmin 4) | DRSC12606 | 0.2 | 0.5 | – | – | – |
| Idh3g | DRSC15699 | 0.21 | 0.32 | – | – | – |
